# Measured values as given in publication PMC13086964, “USP7 deubiquitinase stabilizes FAN1 to support DNA crosslink repair and suppress CAG repeat expansion” (Nature Communications, 2026).
# Protein sequences, listed by entry. Tags and fused reporters are not part of them.
# UniProt Q9Y2M0: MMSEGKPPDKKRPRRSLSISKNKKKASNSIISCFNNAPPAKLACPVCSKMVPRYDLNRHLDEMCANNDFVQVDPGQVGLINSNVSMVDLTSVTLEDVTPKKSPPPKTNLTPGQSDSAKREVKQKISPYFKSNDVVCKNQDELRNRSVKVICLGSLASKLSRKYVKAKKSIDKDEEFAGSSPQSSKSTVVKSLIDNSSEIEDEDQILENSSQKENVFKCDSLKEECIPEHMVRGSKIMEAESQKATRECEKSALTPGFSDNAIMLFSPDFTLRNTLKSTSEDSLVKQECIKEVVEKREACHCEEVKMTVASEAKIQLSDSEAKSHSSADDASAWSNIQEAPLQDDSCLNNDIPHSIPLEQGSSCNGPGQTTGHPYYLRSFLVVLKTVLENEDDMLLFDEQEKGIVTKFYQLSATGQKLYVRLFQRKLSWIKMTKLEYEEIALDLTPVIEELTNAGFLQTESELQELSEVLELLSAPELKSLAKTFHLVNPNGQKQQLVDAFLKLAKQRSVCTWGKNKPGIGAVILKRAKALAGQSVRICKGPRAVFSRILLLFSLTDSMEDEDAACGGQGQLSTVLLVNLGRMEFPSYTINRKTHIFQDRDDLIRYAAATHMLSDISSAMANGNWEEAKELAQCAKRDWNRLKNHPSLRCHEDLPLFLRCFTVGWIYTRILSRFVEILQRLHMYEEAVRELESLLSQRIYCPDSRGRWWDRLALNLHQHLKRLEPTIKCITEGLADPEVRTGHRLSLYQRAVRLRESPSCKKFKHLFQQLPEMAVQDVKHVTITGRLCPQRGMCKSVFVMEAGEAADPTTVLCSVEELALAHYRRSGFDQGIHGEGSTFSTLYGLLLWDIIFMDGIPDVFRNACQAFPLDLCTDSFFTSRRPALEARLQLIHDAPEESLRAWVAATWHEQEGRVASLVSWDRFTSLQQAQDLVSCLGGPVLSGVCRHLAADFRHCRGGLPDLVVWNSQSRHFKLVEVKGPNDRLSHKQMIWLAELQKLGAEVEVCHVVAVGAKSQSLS
# Biological target: GFP-FAN1 wild-type (wt), full-length (human) (UniProt Q9Y2M0)
# Assay: affinity purification with mass spectrometry; GFP-Trap agarose on nuclei-enriched, Benzonase-treated lysates of HEK293 Flp-In T-REx eGFP-FAN1 cells (parental HEK293 as control); IP buffer 50 mM Tris-HCl pH 7.5, 100 mM NaCl, 0.1% NP40; 1 h, 4 °C; LC-MS/MS, n = 3
binder,measurement,value
"endogenous USP48 (HEK293 cells) (enzyme, UniProt Q86UV5 1-1035) MAPRLQLEKAAWRWAETVRPEEVSQEHIETAYRIWLEPCIRGVCRRNCKGNPNCLVGIGEHIWLGEIDENSFHNIDDPNCERRKKNSFVGLTNLGATCYVNTFLQVWFLNLELRQALYLCPSTCSDYMLGDGIQEEKDYEPQTICEHLQYLFALLQNSNRRYIDPSGFVKALGLDTGQQQDAQEFSKLFMSLLEDTLSKQKNPDVRNIVQQQFCGEYAYVTVCNQCGRESKLLSKFYELELNIQGHKQLTDCISEFLKEEKLEGDNRYFCENCQSKQNATRKIRLLSLPCTLNLQLMRFVFDRQTGHKKKLNTYIGFSEILDMEPYVEHKGGSYVYELSAVLIHRGVSAYSGHYIAHVKDPQSGEWYKFNDEDIEKMEGKKLQLGIEEDLAEPSKSQTRKPKCGKGTHCSRNAYMLVYRLQTQEKPNTTVQVPAFLQELVDRDNSKFEEWCIEMAEMRKQSVDKGKAKHEEVKELYQRLPAGAEPYEFVSLEWLQKWLDESTPTKPIDNHACLCSHDKLHPDKISIMKRISEYAADIFYSRYGGGPRLTVKALCKECVVERCRILRLKNQLNEDYKTVNNLLKAAVKGSDGFWVGKSSLRSWRQLALEQLDEQDGDAEQSNGKMNGSTLNKDESKEERKEEEELNFNEDILCPHGELCISENERRLVSKEAWSKLQQYFPKAPEFPSYKECCSQCKILEREGEENEALHKMIANEQKTSLPNLFQDKNRPCLSNWPEDTDVLYIVSQFFVEEWRKFVRKPTRCSPVSSVGNSALLCPHGGLMFTFASMTKEDSKLIALIWPSEWQMIQKLFVVDHVIKITRIEVGDVNPSETQYISEPKLCPECREGLLCQQQRDLREYTQATIYVHKVVDNKKVMKDSAPELNVSSSETEEDKEEAKPDGEKDPDFNQSNGGTKRQKISHQNYIAYQKQVIRRSMRHRKVRGEKALLVSANQTLKELKIQIMHAFSVAPFDQNLSIDGKILSDDCATLGTLGVIPESVILLKADEPIADYAAMDDVMQVCMPEEGFKGTGLLGH",binding,binds

# Results are given in words; binding and its absence hold for the method and conditions named. In cells and extracts the contact can be indirect. These calls come from enrichment with a bait or labelling near it, and not all partners need be listed.
